Reference: the supplement of paper PMC10849652
The other results are listed elsewhere or left out.

Sequences of proteins named here, by UniProt entry; tags and fusion partners are left off. A change or cut given only in a name is not applied to a line headed by its entry.
UniProt O14745: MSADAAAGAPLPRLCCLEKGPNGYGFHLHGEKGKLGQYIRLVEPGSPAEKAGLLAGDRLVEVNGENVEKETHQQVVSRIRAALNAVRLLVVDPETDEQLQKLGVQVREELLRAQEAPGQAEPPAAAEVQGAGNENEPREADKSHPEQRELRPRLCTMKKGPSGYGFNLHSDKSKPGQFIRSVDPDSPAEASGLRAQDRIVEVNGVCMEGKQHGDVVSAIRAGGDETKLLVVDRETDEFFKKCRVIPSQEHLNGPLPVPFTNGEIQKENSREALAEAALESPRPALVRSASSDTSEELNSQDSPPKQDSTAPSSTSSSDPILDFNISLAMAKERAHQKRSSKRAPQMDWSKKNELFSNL
UniProt P09234, whole entry, looked up: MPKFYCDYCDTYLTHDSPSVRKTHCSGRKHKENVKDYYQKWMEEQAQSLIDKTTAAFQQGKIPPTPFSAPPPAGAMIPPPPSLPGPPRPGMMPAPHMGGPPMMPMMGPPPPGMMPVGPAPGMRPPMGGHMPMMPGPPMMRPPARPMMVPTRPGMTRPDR
UniProt Q9Y5X2: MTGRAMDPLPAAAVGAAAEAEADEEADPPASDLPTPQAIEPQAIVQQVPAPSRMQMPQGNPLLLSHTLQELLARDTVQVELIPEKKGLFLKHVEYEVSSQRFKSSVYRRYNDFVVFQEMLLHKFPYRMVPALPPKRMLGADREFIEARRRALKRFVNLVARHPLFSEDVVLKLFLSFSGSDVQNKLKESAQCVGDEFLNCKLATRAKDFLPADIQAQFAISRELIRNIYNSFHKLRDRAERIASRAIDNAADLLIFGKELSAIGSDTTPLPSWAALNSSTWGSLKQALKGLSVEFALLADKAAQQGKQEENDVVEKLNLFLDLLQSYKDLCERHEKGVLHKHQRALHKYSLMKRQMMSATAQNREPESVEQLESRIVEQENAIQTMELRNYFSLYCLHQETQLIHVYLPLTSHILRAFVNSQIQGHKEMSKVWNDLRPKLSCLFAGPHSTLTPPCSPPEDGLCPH
UniProt Q96EX1: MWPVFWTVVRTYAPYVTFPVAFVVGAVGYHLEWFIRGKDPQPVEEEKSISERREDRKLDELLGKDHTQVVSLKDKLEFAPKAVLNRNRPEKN
UniProt O14508, whole entry, looked up: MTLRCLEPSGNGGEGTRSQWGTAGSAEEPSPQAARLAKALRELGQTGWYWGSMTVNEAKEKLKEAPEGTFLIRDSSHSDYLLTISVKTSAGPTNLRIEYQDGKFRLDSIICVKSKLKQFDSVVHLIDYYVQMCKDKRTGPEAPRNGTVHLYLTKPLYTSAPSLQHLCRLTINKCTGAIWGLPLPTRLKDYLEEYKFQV
UniProt Q8IYB5: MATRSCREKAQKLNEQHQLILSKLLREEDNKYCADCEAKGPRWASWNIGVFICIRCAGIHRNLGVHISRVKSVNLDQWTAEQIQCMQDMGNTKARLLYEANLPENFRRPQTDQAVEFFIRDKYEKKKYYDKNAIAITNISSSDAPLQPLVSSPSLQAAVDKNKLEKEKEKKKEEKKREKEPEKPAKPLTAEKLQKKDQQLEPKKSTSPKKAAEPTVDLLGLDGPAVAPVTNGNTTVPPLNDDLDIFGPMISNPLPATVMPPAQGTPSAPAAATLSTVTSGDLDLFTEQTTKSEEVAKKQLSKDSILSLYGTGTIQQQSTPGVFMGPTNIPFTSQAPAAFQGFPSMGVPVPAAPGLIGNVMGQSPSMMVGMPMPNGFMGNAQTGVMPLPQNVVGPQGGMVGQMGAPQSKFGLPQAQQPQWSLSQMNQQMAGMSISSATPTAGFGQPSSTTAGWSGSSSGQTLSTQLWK
UniProt P00441, whole entry, looked up: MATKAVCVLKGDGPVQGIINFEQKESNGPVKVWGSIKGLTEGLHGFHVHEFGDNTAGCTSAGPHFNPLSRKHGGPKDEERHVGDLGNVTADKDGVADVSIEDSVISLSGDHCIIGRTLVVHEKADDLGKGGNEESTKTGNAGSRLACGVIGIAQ
UniProt P62316, whole entry, looked up: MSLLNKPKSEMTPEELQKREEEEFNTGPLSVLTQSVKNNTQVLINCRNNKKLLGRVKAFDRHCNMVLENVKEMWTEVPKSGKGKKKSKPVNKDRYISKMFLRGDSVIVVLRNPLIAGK
UniProt O95295: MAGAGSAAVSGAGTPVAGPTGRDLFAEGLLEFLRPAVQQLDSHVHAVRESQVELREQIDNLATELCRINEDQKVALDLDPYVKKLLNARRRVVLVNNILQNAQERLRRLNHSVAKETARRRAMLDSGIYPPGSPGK
UniProt Q96R06: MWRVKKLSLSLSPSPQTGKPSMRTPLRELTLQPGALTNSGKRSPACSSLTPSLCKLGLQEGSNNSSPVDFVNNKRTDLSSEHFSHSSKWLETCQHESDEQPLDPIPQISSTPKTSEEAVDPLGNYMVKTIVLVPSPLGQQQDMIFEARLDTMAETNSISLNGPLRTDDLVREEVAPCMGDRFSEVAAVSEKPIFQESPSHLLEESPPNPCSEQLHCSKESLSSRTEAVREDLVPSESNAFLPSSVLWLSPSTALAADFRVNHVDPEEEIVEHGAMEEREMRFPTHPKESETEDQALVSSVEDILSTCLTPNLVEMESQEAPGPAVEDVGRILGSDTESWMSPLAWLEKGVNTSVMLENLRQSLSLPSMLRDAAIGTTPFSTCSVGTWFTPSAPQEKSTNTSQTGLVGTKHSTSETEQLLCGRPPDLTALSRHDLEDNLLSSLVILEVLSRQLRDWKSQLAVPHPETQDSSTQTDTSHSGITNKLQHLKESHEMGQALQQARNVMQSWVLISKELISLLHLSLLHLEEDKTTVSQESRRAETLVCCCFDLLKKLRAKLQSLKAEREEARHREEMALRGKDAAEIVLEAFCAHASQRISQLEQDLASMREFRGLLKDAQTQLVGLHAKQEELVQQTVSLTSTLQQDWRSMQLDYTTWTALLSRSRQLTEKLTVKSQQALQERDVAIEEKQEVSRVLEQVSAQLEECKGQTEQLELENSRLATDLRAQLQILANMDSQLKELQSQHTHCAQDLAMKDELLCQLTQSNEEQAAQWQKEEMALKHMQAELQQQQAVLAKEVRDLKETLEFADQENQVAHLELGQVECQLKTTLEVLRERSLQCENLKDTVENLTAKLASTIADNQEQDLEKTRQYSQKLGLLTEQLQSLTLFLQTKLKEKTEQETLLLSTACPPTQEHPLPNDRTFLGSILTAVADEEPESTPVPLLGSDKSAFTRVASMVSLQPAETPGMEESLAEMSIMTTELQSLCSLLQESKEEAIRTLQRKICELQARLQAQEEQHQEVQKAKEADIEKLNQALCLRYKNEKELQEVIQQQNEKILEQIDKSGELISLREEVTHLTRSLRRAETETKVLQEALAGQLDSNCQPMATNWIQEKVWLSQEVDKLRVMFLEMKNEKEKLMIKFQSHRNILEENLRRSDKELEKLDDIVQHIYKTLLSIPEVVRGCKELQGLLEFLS
UniProt Q14683: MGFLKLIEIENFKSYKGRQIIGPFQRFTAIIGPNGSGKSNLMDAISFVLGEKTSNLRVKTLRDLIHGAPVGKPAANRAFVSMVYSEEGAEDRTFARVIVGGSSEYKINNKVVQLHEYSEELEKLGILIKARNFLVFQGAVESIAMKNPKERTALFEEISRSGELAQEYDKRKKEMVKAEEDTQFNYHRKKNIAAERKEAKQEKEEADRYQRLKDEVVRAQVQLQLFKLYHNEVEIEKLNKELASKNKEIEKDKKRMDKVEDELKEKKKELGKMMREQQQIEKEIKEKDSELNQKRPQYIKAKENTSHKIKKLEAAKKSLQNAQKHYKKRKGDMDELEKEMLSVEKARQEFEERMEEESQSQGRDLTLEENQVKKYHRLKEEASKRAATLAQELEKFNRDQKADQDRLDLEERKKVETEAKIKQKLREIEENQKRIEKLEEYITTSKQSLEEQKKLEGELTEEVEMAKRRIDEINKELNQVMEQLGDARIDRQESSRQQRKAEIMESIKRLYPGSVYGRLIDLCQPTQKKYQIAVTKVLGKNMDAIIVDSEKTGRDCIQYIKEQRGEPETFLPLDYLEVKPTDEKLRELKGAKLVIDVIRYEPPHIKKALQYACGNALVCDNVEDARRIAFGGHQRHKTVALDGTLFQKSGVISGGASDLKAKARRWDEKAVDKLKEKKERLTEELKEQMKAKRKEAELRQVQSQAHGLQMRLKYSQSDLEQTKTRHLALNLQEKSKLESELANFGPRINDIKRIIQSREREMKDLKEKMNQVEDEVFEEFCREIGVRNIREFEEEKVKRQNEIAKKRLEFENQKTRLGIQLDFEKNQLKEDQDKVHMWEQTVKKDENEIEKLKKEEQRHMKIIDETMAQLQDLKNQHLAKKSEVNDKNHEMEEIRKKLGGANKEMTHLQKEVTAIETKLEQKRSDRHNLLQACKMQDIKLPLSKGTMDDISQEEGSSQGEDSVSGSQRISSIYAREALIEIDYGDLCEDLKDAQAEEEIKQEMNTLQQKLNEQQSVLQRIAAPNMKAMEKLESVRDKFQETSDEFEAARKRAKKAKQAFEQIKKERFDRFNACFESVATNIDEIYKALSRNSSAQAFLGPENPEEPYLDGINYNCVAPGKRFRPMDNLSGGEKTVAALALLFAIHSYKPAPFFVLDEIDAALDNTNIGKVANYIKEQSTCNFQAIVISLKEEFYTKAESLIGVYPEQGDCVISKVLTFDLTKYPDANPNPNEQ
UniProt P09012, whole entry, looked up: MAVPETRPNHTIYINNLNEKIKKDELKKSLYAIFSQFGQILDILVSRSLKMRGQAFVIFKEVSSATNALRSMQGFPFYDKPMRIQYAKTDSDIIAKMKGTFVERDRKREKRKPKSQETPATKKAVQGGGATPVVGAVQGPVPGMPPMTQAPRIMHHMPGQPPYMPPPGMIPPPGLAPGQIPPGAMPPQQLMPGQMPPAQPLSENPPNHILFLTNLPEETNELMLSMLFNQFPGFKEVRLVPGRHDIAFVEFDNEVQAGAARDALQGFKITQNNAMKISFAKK
UniProt P57768: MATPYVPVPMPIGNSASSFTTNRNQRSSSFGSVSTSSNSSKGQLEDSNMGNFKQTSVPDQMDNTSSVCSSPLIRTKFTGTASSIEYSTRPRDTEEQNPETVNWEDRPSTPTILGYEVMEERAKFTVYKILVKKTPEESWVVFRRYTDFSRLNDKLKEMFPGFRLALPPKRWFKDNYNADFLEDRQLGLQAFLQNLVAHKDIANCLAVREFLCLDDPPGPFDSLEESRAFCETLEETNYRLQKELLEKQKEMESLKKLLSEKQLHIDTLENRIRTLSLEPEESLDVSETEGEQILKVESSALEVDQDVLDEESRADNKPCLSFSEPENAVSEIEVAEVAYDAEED
UniProt O76070, whole entry, looked up: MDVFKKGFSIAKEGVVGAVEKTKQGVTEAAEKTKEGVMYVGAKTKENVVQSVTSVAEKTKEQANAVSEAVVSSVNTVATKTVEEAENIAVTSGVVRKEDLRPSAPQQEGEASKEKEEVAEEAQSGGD

How the values were obtained:
Assay in all cases: log2 fold change, soluble protein after heating vs DMSO (PISA); higher = thermal stabilisation; K562 cells, 10 uM, 30 min; active = over 0.2 and 3.5 SD of the protein, either way, in both replicates (recomputed)
[1] = compound: CC1=C(C=C(C=C1)NC(=O)C2=CC(=CC=C2)C(C)(C)C#N)NC3=CC4=C(C=C3)N=CN(C4=O)C
Summary of the method: (§1)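 K562 cells at 2×10^6 cells/mL were exposed to 10 μM compound for 30 min, then aliquots were heated for 3 min across 48°C-58°C, pooled, and extracted in PBS containing 0.5% NP-40 at 4°C. The supernatant after 21,000xg for 90 min was taken as soluble protein and measured by TMTpro 16plex LC-MS/MS with channel sums equalised. Thermal stability is reported relative to control samples, with values from duplicates. Fold changes are given on a log2 scale.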

[2] = compound: CC1=C(C=C(C=C1)NC(=O)C2=CC(=CC=C2)N(C)C)NC(=O)C3=CC=C(C=C3)O
Summary of the method: as §1

[3] = compound: CC1=CC=C(C=C1)SC2=C3C=C(SC3=CN=C2)C(=O)N
Summary of the method: as §1

[4] = compound: CC1=NC(=CC=C1)C2=C(N=C(N2)C(C)(C)C)C3=CC4=NC=CN=C4C=C3
Summary of the method: as §1

Nexturastat A = compound: CCCCN(Cc1ccc(C(=O)NO)cc1)C(=O)Nc1ccccc1 [Nexturastat A]
Summary of the method: as §1

vemurafenib = compound: CCCS(=O)(=O)Nc1ccc(F)c(C(=O)c2c[nH]c3ncc(-c4ccc(Cl)cc4)cc23)c1F [vemurafenib]
Summary of the method: as §1

[5] = compound: CCCS(=O)(=O)Nc1ccc(F)c(C(=O)c2c[nH]c3ncc(Cl)cc23)c1F
Summary of the method: as §1

[6] = compound: CCCc1cc(C)[nH]c(=O)c1CNC(=O)c1cc(-c2ccnc(N3CCN(C)CC3)c2)cc2c1cnn2C(C)C
Summary of the method: as §1

givinostat = compound: CCN(CC)Cc1ccc2cc(COC(=O)Nc3ccc(C(=O)NO)cc3)ccc2c1 [givinostat]
Summary of the method: as §1

barasertib = compound: CCN(CCCOc1ccc2c(Nc3cc(CC(=O)Nc4cccc(F)c4)[nH]n3)ncnc2c1)CCOP(=O)(O)O [barasertib]
Summary of the method: as §1

[7] = compound: CC[C@@H]1C(=O)N(C)c2cnc(Nc3ccc(C(=O)NC4CCN(C)CC4)cc3OC)nc2N1C1CCCC1
Summary of the method: as §1

volasertib = compound: CC[C@@H]1C(=O)N(C)c2cnc(Nc3ccc(C(=O)N[C@H]4CC[C@H](N5CCN(CC6CC6)CC5)CC4)cc3OC)nc2N1C(C)C [volasertib]
Summary of the method: as §1

[8] = compound: CC[C@H](C)N1C=C(C2=C(C=C(C=C21)C3=CN=C(C=C3)N4CCNCC4)C(=O)NCC5=C(C=C(NC5=O)C)C)C
Summary of the method: as §1

epoxomicin = compound: CC[C@H](C)[C@@H](C(=O)N[C@@H]([C@@H](C)O)C(=O)N[C@@H](CC(C)C)C(=O)[C@]1(CO1)C)NC(=O)[C@H]([C@@H](C)CC)N(C)C(=O)C [epoxomicin]
Summary of the method: as §1

[9] = compound: CCn1c(C(=O)N(C2CC2)C2CC2)cc2c3c(ncn3C)c(Nc3cc(C)n(C)n3)nc21
Summary of the method: as §1

[10] = compound: CCn1cc(-c2ccnc3[nH]c(-c4cccc(CN(C)C)c4)cc23)c(-c2ccc(NC(=O)N(C)C)cc2)n1
Summary of the method: as §1

[11] = compound: CN(C)CC(=O)Nc1ccc2[nH]c(=O)c3ccccc3c2c1
Summary of the method: as §1

rosiglitazone = compound: CN(CCOC1=CC=C(C=C1)C[C@H]2C(=O)NC(=O)S2)C3=CC=CC=N3 (racemic) [rosiglitazone]
Summary of the method: as §1

[12] = compound: CN1C2=C(C3=C1C(=O)N(N=C3)CC4=CC(=CC=C4)N)SC(=C2)S(=O)C
Summary of the method: as §1

[13] = compound: CN1CCC(CNc2ccc3ncc(-c4cccc(OC(F)(F)F)c4)n3n2)CC1
Summary of the method: as §1

Measured: log2 fold change

SLC9A3R1 (UniProt O14745)
inactive: [1] -0.03 | [2] 0.004 | [3] -0.004 | [4] 0.005 | Nexturastat A -0.01 | vemurafenib 0.003 | [5] 0.01 | [6] -0.012 | givinostat 0.011 | barasertib -0.003 | [7] -0.035 | volasertib 0.067 | [8] -0.033 | epoxomicin 0.019 | [9] 0.009 | [10] -0.01 | [11] -0.004 | rosiglitazone 0.001 | [12] -0.06 | [13] -0.035

SMU1 (UniProt Q2TAY7)
inactive: [1] 0.007 | [2] 0.001 | [3] -0.006 | [4] 0.07 | Nexturastat A -0.054 | vemurafenib 0.012 | [5] 0.065 | [6] 0.011 | givinostat 0 | barasertib -0.013 | [7] -0.001 | volasertib -0.136 | [8] 0.008 | epoxomicin 0.006 | [9] -0.031 | [10] -0.038 | [11] -0.022 | rosiglitazone 0.02 | [12] 0.002 | [13] 0.002

SNRPC (UniProt P09234)
inactive: [1] -0.008 | [2] -0.037 | [3] -0.047 | [4] 0.004 | Nexturastat A 0.063 | vemurafenib 0 | [5] -0.069 | [6] 0 | givinostat -0.002 | barasertib -0.012 | [7] 0.079 | volasertib 0.062 | [8] -0.09 | epoxomicin 0.023 | [9] 0.044 | [10] 0.042 | [11] -0.067 | rosiglitazone -0.037 | [12] 0.03 | [13] 0.11

SNX8 (UniProt Q9Y5X2)
inactive: [1] 0.008 | [2] 0.007 | [3] 0.026 | [4] 0.011 | Nexturastat A 0 | vemurafenib 0.006 | [5] -0.008 | [6] -0.016 | givinostat 0.004 | barasertib -0.028 | [7] 0.02 | volasertib -0.013 | [8] -0.007 | epoxomicin -0.077 | [9] -0.04 | [10] 0.032 | [11] -0.063 | rosiglitazone 0.036 | [12] -0.029 | [13] -0.009

SMIM12 (UniProt Q96EX1)
inactive: [1] -0.032 | [2] -0.021 | [3] -0.02 | [4] -0.197 | Nexturastat A -0.045 | vemurafenib -0.132 | [5] -0.046 | [6] 0.467 | givinostat -0.008 | barasertib 0.008 | [7] -0.173 | volasertib -0.062 | [8] 0.032 | epoxomicin -0.008 | [9] -0.001 | [10] -0.025 | [11] -0.088 | rosiglitazone -0.024 | [12] -0.05 | [13] 0.04

SOCS2 (UniProt O14508)
inactive: [1] 0.023 | [2] -0.052 | [3] -0.013 | [4] 0.124 | Nexturastat A -0.021 | vemurafenib 0.051 | [5] 0.008 | [6] -0.087 | givinostat -0.053 | barasertib 0.045 | [7] 0.08 | volasertib -0.049 | [8] -0.048 | epoxomicin 0.097 | [9] -0.032 | [10] -0.032 | [11] -0.001 | rosiglitazone 0.003 | [12] 0.002 | [13] -0.073

SMAP1 isoform 2 (UniProt Q8IYB5)
inactive: [1] 0.075 | [2] -0.009 | [3] 0.095 | [4] 0.12 | Nexturastat A -0.008 | vemurafenib 0.079 | [5] 0.043 | [6] 0.042 | givinostat -0.06 | barasertib 0.073 | [7] -0.018 | volasertib -0.082 | [8] 0.02 | epoxomicin 0.088 | [9] -0.011 | [10] -0.074 | [11] -0.014 | rosiglitazone 0.083 | [12] -0.057 | [13] 0.039

SOD1 (UniProt P00441)
inactive: [1] -0.006 | [2] -0.028 | [3] 0.079 | [4] -0.134 | Nexturastat A -0.043 | vemurafenib 0.111 | [5] -0.004 | [6] -0.001 | givinostat -0.117 | barasertib 0.006 | [7] 0.05 | volasertib 0.116 | [8] 0.009 | epoxomicin -0.001 | [9] 0.018 | [10] 0.072 | [11] -0.027 | rosiglitazone 0.049 | [12] -0.004 | [13] -0.026

SNRPD2 (UniProt P62316)
inactive: [1] -0.007 | [2] 0.016 | [3] -0.066 | [4] -0.016 | Nexturastat A 0.022 | vemurafenib -0.026 | [5] -0.075 | [6] -0.032 | givinostat -0.029 | barasertib -0.03 | [7] 0.127 | volasertib 0.157 | [8] -0.063 | epoxomicin -0.075 | [9] 0.011 | [10] 0.08 | [11] -0.069 | rosiglitazone -0.032 | [12] 0.036 | [13] 0.134

SMIM26, A0A096LP01
inactive: [1] 0.012 | [2] 0.053 | [3] 0.023 | [4] 0.011 | Nexturastat A -0.117 | vemurafenib -0.125 | [5] 0.006 | [6] 0.002 | givinostat -0.003 | barasertib 0 | [7] -0.007 | volasertib -0.061 | [8] 0.076 | epoxomicin 0.01 | [9] 0.011 | [10] -0.078 | [11] -0.033 | rosiglitazone 0.035 | [12] 0.051 | [13] -0.058

Random excerpt: 2 records from the list
SNRPD2 (UniProt P62316)
inactive: [1] -0.007 | [2] 0.016 | [3] -0.066 | [4] -0.016 | Nexturastat A 0.022 | vemurafenib -0.026 | [5] -0.075 | [6] -0.032 | givinostat -0.029 | barasertib -0.03 | [7] 0.127 | volasertib 0.157 | [8] -0.063 | epoxomicin -0.075 | [9] 0.011 | [10] 0.08 | [11] -0.069 | rosiglitazone -0.032 | [12] 0.036 | [13] 0.134

SOCS2 (UniProt O14508)
inactive: [1] 0.023 | [2] -0.052 | [3] -0.013 | [4] 0.124 | Nexturastat A -0.021 | vemurafenib 0.051 | [5] 0.008 | [6] -0.087 | givinostat -0.053 | barasertib 0.045 | [7] 0.08 | volasertib -0.049 | [8] -0.048 | epoxomicin 0.097 | [9] -0.032 | [10] -0.032 | [11] -0.001 | rosiglitazone 0.003 | [12] 0.002 | [13] -0.073

Continuation:

SNAPIN (UniProt O95295)
inactive: [1] -0.05 | [2] 0 | [3] -0.023 | [4] 0.001 | Nexturastat A -0.101 | vemurafenib 0.078 | [5] -0.034 | [6] -0.019 | givinostat -0.047 | barasertib 0.028 | [7] -0.021 | volasertib -0.091 | [8] 0.019 | epoxomicin 0.042 | [9] -0.02 | [10] -0.126 | [11] 0.019 | rosiglitazone 0.07 | [12] 0.009 | [13] 0.021

SPAG5 (UniProt Q96R06)
inactive: [1] 0.127 | [2] -0.048 | [3] -0.016 | [4] -0.078 | Nexturastat A 0.179 | vemurafenib 0.129 | [5] 0.111 | [6] 0.167 | givinostat 0.125 | barasertib 0.048 | [7] -0.071 | volasertib -0.677 | [8] 0.105 | epoxomicin -0.126 | [9] -0.155 | [10] 0.082 | [11] -0.044 | rosiglitazone -0.036 | [12] 0.275 | [13] -0.085

SMC1A (UniProt Q14683)
inactive: [1] -0.03 | [2] -0.008 | [3] -0.008 | [4] 0.018 | Nexturastat A 0.016 | vemurafenib 0.028 | [5] 0.041 | [6] -0.014 | givinostat 0.084 | barasertib 0.007 | [7] -0.019 | volasertib -0.086 | [8] 0.011 | epoxomicin 0.027 | [9] -0.029 | [10] 0.037 | [11] -0.012 | rosiglitazone -0.009 | [12] -0.032 | [13] -0.065

SNRPA (UniProt P09012)
inactive: [1] -0.027 | [2] 0.039 | [3] -0.087 | [4] -0.051 | Nexturastat A 0.133 | vemurafenib -0.024 | [5] -0.085 | [6] -0.019 | givinostat -0.071 | barasertib -0.114 | [7] 0.234 | volasertib 0.202 | [8] -0.091 | epoxomicin -0.118 | [9] 0.029 | [10] 0.135 | [11] -0.037 | rosiglitazone -0.117 | [12] 0.069 | [13] 0.158

SNX16 (UniProt P57768)
inactive: [1] 0.008 | [2] -0.003 | [3] 0.081 | [4] 0.058 | Nexturastat A -0.067 | vemurafenib 0.027 | [5] 0.114 | [6] -0.047 | givinostat -0.031 | barasertib -0.056 | [7] 0.172 | volasertib -0.13 | [8] 0.003 | epoxomicin 0.04 | [9] -0.288 | [10] 0.018 | [11] -0.05 | rosiglitazone -0.114 | [12] -0.06 | [13] -0.027

SNCG (UniProt O76070)
inactive: [1] 0.007 | [2] 0.042 | [3] 0.061 | [4] -0.007 | Nexturastat A -0.052 | vemurafenib -0.028 | [5] 0.037 | [6] -0.001 | givinostat -0.006 | barasertib -0.032 | [7] 0.026 | volasertib 0.102 | [8] -0.021 | epoxomicin 0.015 | [9] 0.001 | [10] -0.023 | [11] -0.003 | rosiglitazone 0.007 | [12] -0.058 | [13] 0.019
